Results taken from US20090122237A1, “POLYMER FILM, METHOD FOR PRODUCING POLYMER FILM, OPTICAL FILM AND POLARIZING PLATE AND LIQUID CRYSTAL DISPLAY DEVICE USING THE SAME” (FUJIFILM Corporation, priority 2005, published 2009).

Experiment: Rth raising agent, data of the formula (1) (Rth(a)−Rth(0))/a
Details: Rth at 550 nm; a = % by mass to 100 parts cellulose acylate

Structure (SMILES)	data of the formula (1) (Rth(a)−Rth(0))/a of the Rth raising agent
CCCCCCCCOC(=O)CCc1cc(-n2n3c4ccc(Cl)cc4n23)c(O)c(C(C)(C)C)c1 [IV-16]	18
COc1ccc(Nc2nc(Nc3cccc(C)c3)nc(Nc3cccc(C)c3)n2)cc1 [II-334]	28
